# Data from US20230151073A1, “FIBRILLATION RESISTANT CALCITONIN PEPTIDES AND USES THEREOF” (Purdue Research Foundation, priority 2020, published 2023).
# Assay: HDX-MS for monomeric hCT (no fibrillation, control)
# Assay type: physicochemical
# Conditions: less than 2 min of D2O exposure
substance,measurement,value
human calcitonin [hCT],"maximum percent deuterium uptake, fragment 1-8",62%
same,"maximum percent deuterium uptake, fragment 1-11",66%
same,"maximum percent deuterium uptake, fragment 12-19",59%
same,"maximum percent deuterium uptake, fragment 16-28",60%
same,"maximum percent deuterium uptake, fragment 20-32",63%
same,"maximum percent deuterium uptake, fragment 26-32",60%
